The record followed here is PMC9515472, “The AhR ligand phthiocol and vitamin K analogs as Pseudomonas aeruginosa quorum sensing inhibitors” (Frontiers in Microbiology, 2022).

The data set relates to P. aeruginosa PAO1 proteome. The class given is cell-based, Pseudomonas aeruginosa. The settings on record: 750 nM.

The structures appear in SMILES notation.

Regarding `CC1=C(O)C(=O)c2ccccc2C1=O` [Pht, 2-hydroxy-3-methyl-1,4-naphthoquinone], the “number of proteins upregulated” value (p-value cutoff 0.05) stood at 10. In addition, the “number of proteins significantly affected” value (p-value cutoff 0.05, of 2,203 proteins identified) was 37.
